{"source": "ChEMBL document CHEMBL1157379", "about": "“Transcriptional response of Candida parapsilosis following exposure to farnesol” (2007)", "type_in_all_cases": "functional", "key": {"[1]": {"test_system": "Candida parapsilosis", "test": "Increase in DBP8 gene expression in Candida parapsilosis CLIB214 at 50 uM after 2 hrs by microarray based transcriptional profiling relative to control"}, "[2]": {"test_system": "Candida parapsilosis", "test": "Decrease in CGD gene ortholog accession number orf19.5129 expression in Candida parapsilosis CLIB214 at 50 uM after 2 hrs by microarray based transcriptional profiling relative to control"}, "[3]": {"test_system": "Candida parapsilosis", "test": "Decrease in CGD gene ortholog accession number orf19.3084 expression in Candida parapsilosis CLIB214 at 50 uM after 2 hrs by microarray based transcriptional profiling relative to control"}, "[4]": {"test_system": "Candida parapsilosis", "test": "Increase in CGD gene ortholog accession number orf19.3456 expression in Candida parapsilosis CLIB214 at 50 uM after 2 hrs by microarray based transcriptional profiling relative to control"}, "[5]": {"test_system": "Candida parapsilosis", "test": "Decrease in CGD gene ortholog accession number orf19.7387 expression in Candida parapsilosis CLIB214 at 50 uM after 2 hrs by microarray based transcriptional profiling relative to control"}, "[6]": {"test_system": "Candida parapsilosis", "test": "Increase in RPS22A gene expression in Candida parapsilosis CLIB214 at 50 uM after 2 hrs by microarray based transcriptional profiling relative to control"}, "[7]": {"test_system": "Candida parapsilosis", "test": "Increase in CGD gene ortholog accession number orf19.3023 expression in Candida parapsilosis CLIB214 at 50 uM after 2 hrs by microarray based transcriptional profiling relative to control"}, "[8]": {"test_system": "Candida parapsilosis", "test": "Increase in MRP20 gene expression in Candida parapsilosis CLIB214 at 50 uM after 2 hrs by microarray based transcriptional profiling relative to control"}, "[9]": {"test_system": "Candida parapsilosis", "test": "Decrease in CGD gene ortholog accession number orf19.2659 expression in Candida parapsilosis CLIB214 at 50 uM after 2 hrs by microarray based transcriptional profiling relative to control"}, "[10]": {"test_system": "Candida parapsilosis", "test": "Increase in CGD gene ortholog accession number orf19.6062 expression in Candida parapsilosis CLIB214 at 50 uM after 2 hrs by microarray based transcriptional profiling relative to control"}, "[11]": {"test_system": "Candida parapsilosis", "test": "Decrease in ARF3 gene expression in Candida parapsilosis CLIB214 at 50 uM after 2 hrs by microarray based transcriptional profiling relative to control"}, "[12]": {"test_system": "Candida parapsilosis", "test": "Increase in CAT1 gene expression in Candida parapsilosis CLIB214 at 50 uM after 2 hrs by microarray based transcriptional profiling relative to control"}, "[13]": {"test_system": "Candida parapsilosis", "test": "Decrease in CGD gene ortholog accession number orf19.1500 expression in Candida parapsilosis CLIB214 at 50 uM after 2 hrs by microarray based transcriptional profiling relative to control"}, "[14]": {"test_system": "Candida parapsilosis", "test": "Increase in CHO2 gene expression in Candida parapsilosis CLIB214 at 50 uM after 2 hrs by microarray based transcriptional profiling relative to control"}, "[15]": {"test_system": "Candida parapsilosis", "test": "Decrease in CGD gene ortholog accession number orf19.413 expression in Candida parapsilosis CLIB214 at 50 uM after 2 hrs by microarray based transcriptional profiling relative to control"}, "[16]": {"test_system": "Candida parapsilosis", "test": "Decrease in CGD gene ortholog accession number orf19.1943 expression in Candida parapsilosis CLIB214 at 50 uM after 2 hrs by microarray based transcriptional profiling relative to control"}, "[17]": {"test_system": "Candida parapsilosis", "test": "Increase in CGD gene ortholog accession number orf19.5517 expression in Candida parapsilosis CLIB214 at 50 uM after 2 hrs by microarray based transcriptional profiling relative to control"}, "[18]": {"test_system": "Candida parapsilosis", "test": "Increase in CGD gene ortholog accession number orf19.813 expression in Candida parapsilosis CLIB214 at 50 uM after 2 hrs by microarray based transcriptional profiling relative to control"}, "[19]": {"test_system": "Candida parapsilosis", "test": "Increase in CGD gene ortholog accession number orf19.6578 expression in Candida parapsilosis CLIB214 at 50 uM after 2 hrs by microarray based transcriptional profiling relative to control"}, "[20]": {"test_system": "Candida parapsilosis", "test": "Decrease in CGD gene ortholog accession number orf19.540 expression in Candida parapsilosis CLIB214 at 50 uM after 2 hrs by microarray based transcriptional profiling relative to control"}, "[21]": {"test_system": "Candida parapsilosis", "test": "Increase in CGD gene ortholog accession number orf19.1642 expression in Candida parapsilosis CLIB214 at 50 uM after 2 hrs by microarray based transcriptional profiling relative to control"}, "[22]": {"test_system": "Candida parapsilosis", "test": "Increase in CGD gene ortholog accession number orf19.5598 expression in Candida parapsilosis CLIB214 at 50 uM after 2 hrs by microarray based transcriptional profiling relative to control"}, "[23]": {"test_system": "Candida parapsilosis", "test": "Decrease in CGD gene ortholog accession number orf19.7149 expression in Candida parapsilosis CLIB214 at 50 uM after 2 hrs by microarray based transcriptional profiling relative to control"}, "[24]": {"test_system": "Candida parapsilosis", "test": "Increase in UBI4 gene expression in Candida parapsilosis CLIB214 at 50 uM after 2 hrs by microarray based transcriptional profiling relative to control"}, "[25]": {"test_system": "Candida parapsilosis", "test": "Decrease in CGD gene ortholog accession number orf19.1496 expression in Candida parapsilosis CLIB214 at 50 uM after 2 hrs by microarray based transcriptional profiling relative to control"}, "[26]": {"test_system": "Candida parapsilosis", "test": "Increase in FMP45 gene expression in Candida parapsilosis CLIB214 at 50 uM after 2 hrs by microarray based transcriptional profiling relative to control"}, "[27]": {"test_system": "Candida parapsilosis", "test": "Increase in GCV1 gene expression in Candida parapsilosis CLIB214 at 50 uM after 2 hrs by microarray based transcriptional profiling relative to control"}, "[28]": {"test_system": "Candida parapsilosis", "test": "Decrease in CGD gene ortholog accession number orf19.7631 expression in Candida parapsilosis CLIB214 at 50 uM after 2 hrs by microarray based transcriptional profiling relative to control"}, "[29]": {"test_system": "Candida parapsilosis", "test": "Increase in CGD gene ortholog accession number orf19.658 expression in Candida parapsilosis CLIB214 at 50 uM after 2 hrs by microarray based transcriptional profiling relative to control"}, "[30]": {"test_system": "Candida parapsilosis", "test": "Increase in ERB1 gene expression in Candida parapsilosis CLIB214 at 50 uM after 2 hrs by microarray based transcriptional profiling relative to control"}, "[31]": {"test_system": "Candida parapsilosis", "test": "Decrease in CTN1 gene expression in Candida parapsilosis CLIB214 at 50 uM after 2 hrs by microarray based transcriptional profiling relative to control"}, "[32]": {"test_system": "Candida parapsilosis", "test": "Increase in HOM6 gene expression in Candida parapsilosis CLIB214 at 50 uM after 2 hrs by microarray based transcriptional profiling relative to control"}, "[33]": {"test_system": "Candida parapsilosis", "test": "Increase in CGD gene ortholog accession number orf19.6369 expression in Candida parapsilosis CLIB214 at 50 uM after 2 hrs by microarray based transcriptional profiling relative to control"}, "[34]": {"test_system": "Candida parapsilosis", "test": "Increase in CGD gene ortholog accession number orf19.6973 expression in Candida parapsilosis CLIB214 at 50 uM after 2 hrs by microarray based transcriptional profiling relative to control"}, "[35]": {"test_system": "Candida parapsilosis", "test": "Decrease in CGD gene ortholog accession number orf19.7589 expression in Candida parapsilosis CLIB214 at 50 uM after 2 hrs by microarray based transcriptional profiling relative to control"}, "[36]": {"test_system": "Candida parapsilosis", "test": "Decrease in CGD gene ortholog accession number orf19.296 expression in Candida parapsilosis CLIB214 at 50 uM after 2 hrs by microarray based transcriptional profiling relative to control"}}, "note": "Further values from the same series stand in other lists."}
{"smiles": "CC(C)=CCC/C(C)=C/CC/C(C)=C/CO", "note": "[FARNESOL]", "values": [{"measurement": "fold change (FC)", "setting": "[1]", "result": 1.82}, {"measurement": "fold change (FC)", "setting": "[2]", "result": 2.19}, {"measurement": "fold change (FC)", "setting": "[3]", "result": 1.57}, {"measurement": "fold change (FC)", "setting": "[4]", "result": 1.68}, {"measurement": "fold change (FC)", "setting": "[5]", "result": 1.87}, {"measurement": "fold change (FC)", "setting": "[6]", "result": 2.5}, {"measurement": "fold change (FC)", "setting": "[7]", "result": 1.56}, {"measurement": "fold change (FC)", "setting": "[8]", "result": 1.63}, {"measurement": "fold change (FC)", "setting": "[9]", "result": 4.31}, {"measurement": "fold change (FC)", "setting": "[10]", "result": 1.68}, {"measurement": "fold change (FC)", "setting": "[11]", "result": 1.51}, {"measurement": "fold change (FC)", "setting": "[12]", "result": 1.95}, {"measurement": "fold change (FC)", "setting": "[13]", "result": 1.67}, {"measurement": "fold change (FC)", "setting": "[14]", "result": 1.6}, {"measurement": "fold change (FC)", "setting": "[15]", "result": 1.78}, {"measurement": "fold change (FC)", "setting": "[16]", "result": 2.09}, {"measurement": "fold change (FC)", "setting": "[17]", "result": 5.66}, {"measurement": "fold change (FC)", "setting": "[18]", "result": 1.59}, {"measurement": "fold change (FC)", "setting": "[19]", "result": 1.76}, {"measurement": "fold change (FC)", "setting": "[20]", "result": 1.8}, {"measurement": "fold change (FC)", "setting": "[21]", "result": 1.82}, {"measurement": "fold change (FC)", "setting": "[22]", "result": 1.66}, {"measurement": "fold change (FC)", "setting": "[23]", "result": 1.62}, {"measurement": "fold change (FC)", "setting": "[24]", "result": 1.94}, {"measurement": "fold change (FC)", "setting": "[25]", "result": 2.69}, {"measurement": "fold change (FC)", "setting": "[26]", "result": 1.64}, {"measurement": "fold change (FC)", "setting": "[27]", "result": 3.3}, {"measurement": "fold change (FC)", "setting": "[28]", "result": 1.74}, {"measurement": "fold change (FC)", "setting": "[29]", "result": 1.83}, {"measurement": "fold change (FC)", "setting": "[30]", "result": 1.63}, {"measurement": "fold change (FC)", "setting": "[31]", "result": 1.55}, {"measurement": "fold change (FC)", "setting": "[32]", "result": 2.31}, {"measurement": "fold change (FC)", "setting": "[33]", "result": 1.62}, {"measurement": "fold change (FC)", "setting": "[34]", "result": 1.53}, {"measurement": "fold change (FC)", "setting": "[35]", "result": 1.77}, {"measurement": "fold change (FC)", "setting": "[36]", "result": 1.73}]}
